In all, about 31,000 sequences went through this assay and about 1,400 (4.5%) were called active.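 How the source made its calls: active means median seed-adjusted z-score above 1 or below -1; inactive means the rest.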 The list shows a part of the results.
test: Novel Modifiers of Survival Motor Neuron (SMN) Protein: Gene Identification via Genome-wide siRNA Screen; settings: HEK293T SMN2-luciferase reporter, siRNA knockdown, 72 h; actives lie on both sides;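 further: luminescence tracks full-length SMN protein made from the SMN2 reporter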
Method in brief: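 Luciferase signal, proportional to full-length SMN made from an SMN2 cDNA reporter in stable HEK293T cells, was read 72 h after siRNA reverse transfection. Values were expressed as MAD scores after non-targeting-control normalization and log10 conversion; seed analysis flagged off-targets.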

Sequence | median seed-adjusted z-score
CCAAGGAGUCGUCUACUUUTT against B3GAT3 | inactive: -0.00603
GGCUAGAAAUAUUGCGAUUTT against DOCK9 | inactive: 0.61
CUGUCUCGCUUGUCAUAUATT against POLR3B | inactive: -0.151
AGAUCGAGACGCUCACGCUTT against BHLHA15 | inactive: -0.199
GGGACUCUGUAUUCCCUCUTT against WFDC2 | inactive: -0.466
CUACGGCUACGUCUACAUCTT against GPR25 | inactive: 0.377
GAUGCAUCAUCUGAAUAAATT against CPA6 | inactive: 0.343
AGUUUGAUGUUAUCAAUCUTT against PRKAG1 | inactive: 0.431
CAUCCUCGUUGUGAAUUUATT against SGCG | inactive: 0.886
AGUCCUCGGUGAUGCGUGATT against LMNB2 | inactive: -0.15
GCUCUCAUAUCAUUCCAUUTT against PPIL5 | inactive: 0
GAGAUGUUCCAGACCUUUUTT against DNAJC27 | inactive: 0.252
GUGUUAACCCUGAUCUUCUTT against GPT | inactive: -0.00224
GAACCGAGACGAACUGAAUTT against TBXAS1 | inactive: 0
GGAUAGGAGAUCAUAGUCATT against RAPGEF6 | inactive: -0.186
CGCGGACUGCGCUUACAAATT against ISLR2 | inactive: 0.263
GAGGUGAACUGGAAGCGAATT against MBOAT1 | active: -1.22
GCCGAAACCUCAUGAGUUATT against EDEM1 | inactive: -0.175
GGACUAAUGCUAAGGUUAUTT against ABCA6 | inactive: 0.113
GAUUCUGGAGAGUACGUAUTT against IGSF10 | inactive: -0.0992
GAAGAAUGCCGCUUUGAAATT against MGAT2 | inactive: -0.124
GCUUAUUGUUCCGAAUGUATT against AP3B1 | inactive: 0.31
GAGAUGAAACGGUCUCGAATT against ARHGEF11 | inactive: -0.525

Sequence | median seed-adjusted z-score
CAAGCAUCCUAAUCUGGUATT against ABL2 | inactive: 0.293
CCAUGAUUCUCGCAUCCAUTT against 10-Sep | inactive: 0.571
GAGAUGAACUCAACAUGAUTT against CATSPER4 | inactive: -0.669
GGUUAGACAUCAGUCCUUUTT against DHX15 | active: 1.36
GGUCAUUAUUGGUGAGCAATT against HARS2 | inactive: 0
CAGUCCUGAUUGCAUCAUATT against LDHB | inactive: -0.515
UGGUUGUAUCAACUAUGAATT against MYL6 | inactive: -0.228
GCAUCUACUUUGCCGGCGATT against IL4I1 | inactive: -0.441
GCCCAGCACCUACUUGUAATT against ENTPD2 | inactive: 0.0319
GGAUAAGAGCUGUCCUAGATT against EDEM3 | inactive: 0.119
GCAUGAAGCCUGCAUUCUUTT against TBX21 | inactive: -0.454
CAACAGACCUAGAACAGGATT against KRT23 | inactive: -0.0696
GGCUGUUGAACUUCAGUUATT against EMR2 | inactive: 0.0569
GAUCGAGAGUGACCGAUUATT against HK1 | inactive: -0.129
GACUAUUUAUUCCAGCUUUTT against DLX5 | inactive: 0.115
AGAUCUUGAUUAUUCCAGATT against NR4A3 | inactive: -0.205
CCUUAGAUCUGAGUCCAUUTT against NOS1 | inactive: 0.0195
GCAGAUCCAAGGUCAAGUATT against TGM4 | inactive: -0.43
GAAUAAGAGCACAAGUAAATT against SERPINB13 | inactive: 0.0593
GGUAAUAGCUUCUACAAGATT against DPP4 | inactive: 0.0394
CUAUCGAUCGCUACCAGAATT against P2RY12 | inactive: 0.143
GCAACUACGUGACUCGCUATT against SMUG1 | active: -1.38
GAUACUUGCUGGAUCUUCATT against 6-Mar | inactive: -0.483

Sequence | median seed-adjusted z-score
AGAUGUUCUUCGCUAAUAATT against DNMT3A | inactive: -0.643
GCAGCUAUCGACAACAUGATT against PPIE | inactive: -0.699
CAACCUAUCAUAUCUGUUUTT against SLC22A16 | inactive: 0.0878
AGGCAUUCCUCGGAAGUCATT against SMAD7 | inactive: -0.25
GCCUCAAGAUGUUUGCAAATT against IMP4 | inactive: -0.359
GACUUAAGCCGAGUAAAUATT against PGGT1B | inactive: -0.164
UACUGGAGAUGUUACUAUUTT against ARL1 | inactive: 0.347
GCUAGUCUCAAAGCGCAUATT against ZNF236 | inactive: 0.683
ACUCUUAUGUGAUCAUCAATT against CAPN5 | inactive: 0.535
GGAUAACUUAGAGAAGCAATT against TRIM55 | inactive: -0.483
GGUUGUAAGAAGAUAUAUATT against ARHGEF10 | inactive: 0.22
GUACAUAGAUUCUAGGCAATT against FOXJ3 | inactive: -0.155
GCAGAGUCCCUUAGACAGATT against PCDHGA1 | inactive: -0.319
CAACCACUAUCUCAGUGCATT against BCL2L11 | inactive: -0.0521
GGUGUACCAGUAUGACAAATT against GPR139 | inactive: 0.0111
CGAGACCGACCAUCCAUAATT against NEK5 | inactive: 0.0403
GAAGCAUGCUAUCCACGGATT against MCF2L2 | inactive: -0.465
CUUCCACCGCUUCUACCAATT against HSD17B1 | inactive: -0.569
GGAGAUUCCAUAAGACAAUTT against ZNF114 | inactive: -0.303
CACUCUUGUUUAUGGAACATT against NUAK1 | inactive: -0.197
GCCGCAACAUGGAAGUACATT against MAPK8IP3 | inactive: 0.734
GACCCAAACUUCGUGCUAATT against KCNH4 | inactive: -0.769

Given as a markdown table: part of the list above.

| Sequence | median seed-adjusted z-score |
| --- | --- |
| GAAUAAGAGCACAAGUAAATT against SERPINB13 | inactive: 0.0593 |
| GGUAAUAGCUUCUACAAGATT against DPP4 | inactive: 0.0394 |
| CUAUCGAUCGCUACCAGAATT against P2RY12 | inactive: 0.143 |
| GCAACUACGUGACUCGCUATT against SMUG1 | active: -1.38 |

Source: PubChem BioAssay AID1347426 (Functional Genomics Laboratory (NCATS/FGL), 2020)
